A negative result means that nothing was seen under these conditions.
Target: human serum albumin (HSA) (human) (UniProt P02768)
Assay: colorimetric AuNP/CTAB aggregation assay (A650/A520)
Conditions: 1 uM protein, 4 nM CTAB; 20 mM HEPES pH 7.4, room temperature, 20 nM aptamer with protein 20 min, then 4 nM CTAB 20 min, then AuNPs 5 min (200 uL final); commercial protein; single-stranded DNA

## GTTCGATTGGATTGTGCCGGAAGTGCTGGCTCGAAC [pL1 aptamer]
  binding result: no binding
